Measurements reported in publication PMC7530387.

By UniProt entry, the sequences of proteins in these tests, tags left out. Where a name states a change or a piece, a line headed by the entry shows the natural chain unless it says otherwise.
UniProt P35232: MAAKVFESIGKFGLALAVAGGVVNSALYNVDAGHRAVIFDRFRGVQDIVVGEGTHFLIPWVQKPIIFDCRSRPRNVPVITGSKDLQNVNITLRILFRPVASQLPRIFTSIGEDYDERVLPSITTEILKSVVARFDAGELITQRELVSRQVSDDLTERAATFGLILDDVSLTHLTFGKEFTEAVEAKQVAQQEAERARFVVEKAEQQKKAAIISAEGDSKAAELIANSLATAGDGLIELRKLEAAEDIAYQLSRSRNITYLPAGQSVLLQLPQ
UniProt P54198: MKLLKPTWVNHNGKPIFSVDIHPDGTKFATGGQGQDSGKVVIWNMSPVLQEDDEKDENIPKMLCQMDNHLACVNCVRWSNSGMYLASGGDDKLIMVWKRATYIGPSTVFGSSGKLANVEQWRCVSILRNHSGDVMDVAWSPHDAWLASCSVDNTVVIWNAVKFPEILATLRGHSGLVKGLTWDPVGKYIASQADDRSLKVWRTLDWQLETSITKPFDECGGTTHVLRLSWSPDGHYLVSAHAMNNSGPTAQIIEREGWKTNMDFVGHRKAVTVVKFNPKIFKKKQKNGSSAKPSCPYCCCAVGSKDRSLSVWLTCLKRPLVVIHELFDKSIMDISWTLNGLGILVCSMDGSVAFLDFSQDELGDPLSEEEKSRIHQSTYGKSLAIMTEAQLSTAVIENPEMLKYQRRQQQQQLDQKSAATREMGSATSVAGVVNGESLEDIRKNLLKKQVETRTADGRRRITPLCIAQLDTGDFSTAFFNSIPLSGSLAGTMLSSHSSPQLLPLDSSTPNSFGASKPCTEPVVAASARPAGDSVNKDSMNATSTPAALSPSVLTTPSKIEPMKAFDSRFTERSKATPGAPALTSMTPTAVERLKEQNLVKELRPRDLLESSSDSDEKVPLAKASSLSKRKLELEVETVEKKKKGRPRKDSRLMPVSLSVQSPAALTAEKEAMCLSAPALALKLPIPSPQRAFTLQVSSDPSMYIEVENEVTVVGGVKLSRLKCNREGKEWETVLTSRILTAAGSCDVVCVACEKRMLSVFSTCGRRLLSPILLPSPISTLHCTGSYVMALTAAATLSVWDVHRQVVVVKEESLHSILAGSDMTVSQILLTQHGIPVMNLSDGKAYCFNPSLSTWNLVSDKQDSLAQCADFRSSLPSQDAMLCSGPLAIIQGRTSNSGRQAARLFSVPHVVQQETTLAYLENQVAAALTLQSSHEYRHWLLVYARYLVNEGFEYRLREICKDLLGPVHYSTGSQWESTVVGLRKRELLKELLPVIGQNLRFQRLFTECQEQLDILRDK

Biological target: PHB domain-delete-linker (PHB-D-linker) (UniProt P35232)
Assay: co-IP; Flag-tagged PHB or PHB fragments and HA-HIRA exogenously expressed in HEK 293T cells; IP with M2 beads, western blot; Co-IP buffer 50 mM Tris pH 7.4, 100 mM NaCl, 5 mM EDTA, 0.1% NP40

binding: no binding
Substance: HA-tagged HIRA (histone regulator A) (from UniProt P54198 1-1017)

These are yes or no findings as the source states them, for the method shown. In cells and extracts the contact can be indirect.
